Reference: patent US4366162A, “Aryl ethers of N-alkyl-piperidines and acid addition salts thereof” (AB Ferrosan, priority 1977, dated 1982)
Converted amounts (≈) assume the structure as drawn.

System: acetylcholine induced contraction of guinea pig ileum
Experiment: Anticholinergic activity: acetylcholine induced contraction of guinea pig ileum
Settings: acetylcholine 0.02 μg/ml, 50% inhibition of the contraction

## O=C(CCCN1CCC(O)(c2ccc(Cl)cc2)CC1)c1ccc(F)cc1 [Haloperidol, haloperidol]
  ED50, Anticholinergic activity: 32 µg/mL (≈ 85.1 µM)
